For experiment [1], the target named is mouse CD4 (endogenous, thymocytes) (mouse (endogenous in C57Bl/6 thymocytes)) (UniProt P06332). Nature of the experiment: co-IP; flow cytometric co-IP (FC-IP): 10^7 thymocytes lysed at 4 °C for 30 min, lysate incubated with beads carrying anti-mCD4 (RM4-4) or anti-mCD8β (53-5.8), beads stained for Lck and coreceptor, occupancy = background-subtracted Lck/coreceptor fluorescence ratio; with or without 5 mM EDTA in lysis buffer or 5 mM TPEN pretreatment of cells. (Flow cytometry measures light scatter and fluorescence of single cells or particles in a stream.)

Protein sequences, listed by entry. Tags and fused reporters are not part of them. Lines headed by an entry give the natural chain unless they say otherwise; changes in a name come on top. Residues count along the entry.
UniProt P06332, residues 27-457: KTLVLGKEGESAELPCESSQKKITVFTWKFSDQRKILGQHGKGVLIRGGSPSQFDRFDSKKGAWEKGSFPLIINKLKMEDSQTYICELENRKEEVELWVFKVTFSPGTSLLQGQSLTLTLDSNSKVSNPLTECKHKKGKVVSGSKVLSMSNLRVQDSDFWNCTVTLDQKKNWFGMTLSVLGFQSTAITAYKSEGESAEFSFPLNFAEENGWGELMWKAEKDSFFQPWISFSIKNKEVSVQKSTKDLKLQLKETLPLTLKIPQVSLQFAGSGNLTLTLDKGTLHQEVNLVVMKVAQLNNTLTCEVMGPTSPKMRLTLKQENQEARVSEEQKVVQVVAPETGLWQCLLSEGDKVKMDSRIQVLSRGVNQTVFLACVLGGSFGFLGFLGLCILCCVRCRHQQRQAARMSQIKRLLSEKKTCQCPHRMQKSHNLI
UniProt P06239: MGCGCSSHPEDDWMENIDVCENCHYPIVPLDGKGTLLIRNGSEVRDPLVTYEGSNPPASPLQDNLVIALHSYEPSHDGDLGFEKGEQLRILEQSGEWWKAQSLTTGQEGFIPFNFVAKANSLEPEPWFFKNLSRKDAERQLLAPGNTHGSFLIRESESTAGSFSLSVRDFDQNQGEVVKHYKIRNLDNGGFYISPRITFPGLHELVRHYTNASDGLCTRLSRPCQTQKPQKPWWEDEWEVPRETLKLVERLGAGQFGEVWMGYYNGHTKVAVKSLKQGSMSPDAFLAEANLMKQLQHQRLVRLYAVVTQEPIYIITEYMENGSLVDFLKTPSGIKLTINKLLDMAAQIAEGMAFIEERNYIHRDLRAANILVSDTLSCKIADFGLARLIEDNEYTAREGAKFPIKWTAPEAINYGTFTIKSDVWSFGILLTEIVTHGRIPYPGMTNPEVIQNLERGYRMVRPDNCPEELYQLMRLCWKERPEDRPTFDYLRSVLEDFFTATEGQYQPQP
UniProt P06240: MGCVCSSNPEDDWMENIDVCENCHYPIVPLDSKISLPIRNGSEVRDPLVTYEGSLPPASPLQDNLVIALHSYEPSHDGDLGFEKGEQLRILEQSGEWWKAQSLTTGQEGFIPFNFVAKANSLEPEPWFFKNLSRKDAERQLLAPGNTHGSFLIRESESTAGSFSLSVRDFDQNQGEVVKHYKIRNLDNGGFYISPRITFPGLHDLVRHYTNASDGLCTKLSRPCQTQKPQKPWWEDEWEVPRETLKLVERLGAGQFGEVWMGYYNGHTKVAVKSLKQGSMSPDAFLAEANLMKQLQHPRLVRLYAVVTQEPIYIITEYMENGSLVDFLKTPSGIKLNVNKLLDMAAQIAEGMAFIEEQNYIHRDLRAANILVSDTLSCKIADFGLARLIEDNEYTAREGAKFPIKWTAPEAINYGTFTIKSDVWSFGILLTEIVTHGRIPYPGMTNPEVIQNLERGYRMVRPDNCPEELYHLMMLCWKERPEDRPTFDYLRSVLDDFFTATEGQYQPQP

Experiment [2] deals with human clasp-deficient Lck (C20S, C23S) with fluorescent protein tag (HEK293T) (human) (UniProt P06239). The experiment in a line: scanning fluorescence cross-correlation spectroscopy (sFCCS); live HEK293T cells on glass coverslips coexpressing mCherry2- and mEGFP-tagged proteins, one coreceptor; line scans at the basal cell surface; cross-correlation quotient q normalised to the tandem control (100%) and Lck^CS/Lck^CS (0%).

Experiment [3] deals with murine CD4 expressed in Jurkat T cells (mouse) (UniProt P06332). Nature of the experiment: co-IP; flow cytometric co-IP (FC-IP) from lysates of Jurkat T cells (endogenous CD4/Lck ablated) transduced with mCD4 and mLck or mLck^CS; 10^7 cells; with or without EDTA or TPEN.

Results are given in words; binding and its absence hold for the method and conditions named. For some of these results: In cells and extracts the contact can be indirect. Some binding calls cover weakened binding; strength is not graded here.

With “mouse Lck (endogenous, thymocytes) (from UniProt P06240 1-509) (enzyme)”, the binding result in experiment [1] is given as “binds”.

For the substance “human clasp-deficient Lck (C20S, C23S) with fluorescent protein tag (HEK293T) (from UniProt P06239 1-509) (enzyme)”, the binding entry in experiment [2] is listed as “no binding”.

For the substance “murine Lck expressed in Jurkat T cells (from UniProt P06240 1-509) (enzyme)”, the binding result in experiment [3] is reported as “binds”.

Regarding “murine clasp-deficient Lck (C20S, C23S) expressed in Jurkat T cells (from UniProt P06240 1-509) (enzyme)”, in experiment [3], the binding result was “no binding”.
